{"sequences": {"note": "Protein sequences, listed by entry. Tags and fused reporters are not part of them. Residues count along the entry.", "UniProt P35918, 20-1345": "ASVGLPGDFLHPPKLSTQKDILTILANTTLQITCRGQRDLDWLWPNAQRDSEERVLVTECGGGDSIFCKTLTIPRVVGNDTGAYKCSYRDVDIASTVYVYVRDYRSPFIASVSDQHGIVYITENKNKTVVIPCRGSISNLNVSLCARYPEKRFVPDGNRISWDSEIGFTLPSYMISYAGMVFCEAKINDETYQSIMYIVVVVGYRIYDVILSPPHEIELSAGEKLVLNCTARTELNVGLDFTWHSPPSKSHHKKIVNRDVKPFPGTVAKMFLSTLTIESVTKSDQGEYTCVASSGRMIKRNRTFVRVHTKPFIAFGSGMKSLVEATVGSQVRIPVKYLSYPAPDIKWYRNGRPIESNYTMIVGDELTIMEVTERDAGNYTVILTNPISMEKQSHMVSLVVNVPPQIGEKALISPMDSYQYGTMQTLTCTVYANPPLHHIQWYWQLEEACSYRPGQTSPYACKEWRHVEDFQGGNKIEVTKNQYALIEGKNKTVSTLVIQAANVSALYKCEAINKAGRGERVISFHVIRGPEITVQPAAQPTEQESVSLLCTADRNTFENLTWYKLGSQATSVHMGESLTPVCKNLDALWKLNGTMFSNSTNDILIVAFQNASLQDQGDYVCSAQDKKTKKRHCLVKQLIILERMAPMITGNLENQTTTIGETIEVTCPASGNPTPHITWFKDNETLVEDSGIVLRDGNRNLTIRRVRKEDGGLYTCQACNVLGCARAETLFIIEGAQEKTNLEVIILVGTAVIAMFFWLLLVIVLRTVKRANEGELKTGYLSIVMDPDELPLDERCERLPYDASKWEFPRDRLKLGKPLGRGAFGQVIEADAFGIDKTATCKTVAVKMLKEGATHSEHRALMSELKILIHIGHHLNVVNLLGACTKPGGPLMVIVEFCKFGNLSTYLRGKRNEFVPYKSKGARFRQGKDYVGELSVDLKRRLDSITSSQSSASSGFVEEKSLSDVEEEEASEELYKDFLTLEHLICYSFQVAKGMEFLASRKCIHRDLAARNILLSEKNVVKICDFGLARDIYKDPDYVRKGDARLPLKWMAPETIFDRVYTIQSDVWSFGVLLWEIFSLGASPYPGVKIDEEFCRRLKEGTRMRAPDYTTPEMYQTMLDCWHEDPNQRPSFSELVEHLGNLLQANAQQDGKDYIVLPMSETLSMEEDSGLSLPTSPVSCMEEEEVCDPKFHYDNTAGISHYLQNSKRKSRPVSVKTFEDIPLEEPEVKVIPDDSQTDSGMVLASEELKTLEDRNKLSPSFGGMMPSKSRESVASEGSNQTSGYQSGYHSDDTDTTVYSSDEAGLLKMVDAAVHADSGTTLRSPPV"}, "source": "patent US11084852B2", "about": "“Ubiquitin interacting motif peptides as therapeutics” (OKLAHOMA MEDICAL RESEARCH FOUNDATION, priority 2015, dated 2021)", "key": {"LLC tumors": {"test_system": "LLC tumors", "test": "LLC tumor models in genetically modified mice", "format": "in vivo"}, "Notch": {"test_system": "Notch", "test": "Notch signaling in endothelial cells", "format": "cell-based"}, "retinal neoangiogenesis": {"test_system": "retinal neoangiogenesis", "test": "Retina neovascularization", "format": "in vivo, mice", "conditions": "intra-ocular injection at P1, P3 and P5, retinas at P6"}, "[1]": {"test_system": "EGFR, FGFR1, PDGFR-β and TGFβ-R1 downstream signaling", "test": "Downstream signaling of other angiogenic receptors in HUVEC^αvβ3", "format": "cell-based, human"}, "epsin 1 and epsin 2": {"test_system": "epsin 1 and epsin 2", "test": "Epsin expression in HUVEC^αvβ3 cells and tumors", "format": "cell-based"}, "VEGFR2 signaling": {"test_system": "VEGFR2 signaling", "test": "VEGF signaling in HUVEC^αvβ3 cells (Western blot)", "format": "cell-based, human"}, "HUVEC^αvβ3 cells": {"test_system": "HUVEC^αvβ3 cells", "test": "In vitro angiogenesis assays in HUVEC^αvβ3", "format": "cell-based, human"}, "[2]": {"test_system": "Lewis lung carcinoma (LLC) tumors", "test": "Subcutaneous LLC tumor model", "format": "in vivo, mice", "description": "C56BL/6 mice and TRAMP prostate cancer models were obtained from Jackson Laboratory. SCID/NOD immune-deficient mice were purchased from Charles River Labs (Wilmington, Mass.). WT-Flk, EC-iDKO, EC-iDKO-Flk and EC-iDKO-Notch mice were generated by crossing conditional double knockout mice (EC-iDKO) with Flk-1^fl/fl or NICD^LSL mice as described in (FIGS. 13A-D) (Pasula et al., 2012; Tessneer et al., 2014). All animal protocols have been approved by the IACUC in Oklahoma Medical Research Foundation. Animal tumor models were established as follows: • (1) Subcutaneous Tumor Models (LLC, melanoma B16 and glioma U87/SCID): LLC, melanoma and glioma tumor models were established as previously described (Pasula et al., 2012). Synthetic peptides were administered at 10 mg/kg intravenously every second day beginning after small tumors were established (20-50 mm^3; approximately 12 days post implantation). Tumor volumes were monitored every other day until euthanized following IACUC tumor scoring system. • (2) TRAMP Prostate Tumor Model (Transgenic Adenocarcinoma of Mouse Prostate). Mice aged 20 weeks received control or UPI peptides by intraperitoneal injection every second day (20 mg/kg) until the mice died or were euthanized following IACUC tumor scoring system. Mortality rates were recorded. Prostate tumors were analyzed by weighing genitourinary tract (GU), H&E staining, IHC, IF staining and Western blotting as previously described (Pasula et al., 2012; Tessneer et al., 2013). Lymph nodes, lung, liver, spleen and bones were similarly analyzed for metastasis. • (3) B16 Melanoma Metastasis Model. 1×10^6 B16 melanoma cancer cells were subcutaneously implanted into C56BL/6 mice. Established tumors (400-500 mm^3) were surgically removed then UPI or control peptides were intravenously injected every second day (10 mg/kg) for five weeks. Mice were sacrificed after 5 weeks and tissues (including lung, liver and lymph nodes, etc.) were harvested and analyzed for metastasis by gross morphology, H&E, IHC or IF staining, as well as Western blotting. • (4) Orthotopical Glioma Tumor Models (U87/SCID and GL261/C56BL/6). Orthotopic glioma models were established by implanting U87 or GL261 glioma cells in the forebrain of SCID or C57BL/6 mice, respectively, as previously described (Doblas et al., 2012). Tumors were monitored by MRI as previously described (Pasula et al., 2012). Once tumors reached 10-20 mm^3 in size, control or UPI peptides were administered intravenously every second day (10 mg/kg). Tumor volume was analyzed by MRI every other day until the mice died or were euthanized following IACUC tumor scoring system. Mortality rates were recorded. Anti-VEGF antibody (B20-4.1.1) serves as positive control (5 mg/kg). […]"}, "in vivo neoangiogenesis": {"test_system": "in vivo neoangiogenesis", "test": "Matrigel plug angiogenesis assay", "parameters": "species or system mice", "conditions": "100 μg/ml peptide with VEGF, six days"}, "VEGFR2": {"target": "VEGFR2 (Mus musculus, UniProt P35918)", "test": "Western blot of angiogenic receptors in tumors of treated tumor-bearing mice", "format": "in vivo", "parameters": "from tissue; host or cells: B16 melanoma tumors and U87 glioma tumors in mice", "conditions": "B16 melanoma and U87 glioma tumors"}, "B16 melanoma metastasis": {"test_system": "B16 melanoma metastasis", "test": "B16 melanoma metastasis model after surgical removal of primary tumors", "format": "in vivo, mice", "conditions": "10 mg/kg every-other-day i.v. for five weeks after tumor removal"}, "human glioma U87 tumor": {"test_system": "human glioma U87 tumor", "test": "Orthotopic human glioma U87 model in SCID mice", "format": "in vivo"}, "human glioma U87 tumors": {"test_system": "human glioma U87 tumors", "test": "Subcutaneous human glioma U87 tumor model in SCID mice", "format": "in vivo"}, "TRAMP prostate tumors": {"test_system": "TRAMP prostate tumors", "test": "TRAMP prostate tumor model", "format": "in vivo, mice"}, "glioma GL261 tumor": {"test_system": "glioma GL261 tumor", "test": "Orthotopic glioma GL261 model in C57BL/6 mice", "format": "in vivo", "conditions": "10 mg/kg i.v. every-other-day"}, "VEGFR1": {"test_system": "VEGFR1", "test": "VEGFR1 signaling in HUVEC^αvβ3 cells", "format": "cell-based, human"}, "B16 melanoma tumors": {"test_system": "B16 melanoma tumors", "test": "Subcutaneous B16 melanoma tumor model", "format": "in vivo, mice", "conditions": "10 mg/kg i.v. every-second-day"}}, "note": "“Also recorded” adds a separate entry of the source. At least one peptide structure holds a part that was inferred or is arguable (an end, a ring closure or a residue). Positions of bridges follow the written chain, without caps; N, C: chain ends. Non-standard residues stand in square brackets, D forms with d. Residues, ends and D or L forms follow the SMILES beside them."}
{"smiles": "CC[C@@H](C)[C@@H](NC(=O)[C@@H](CS)NC(=O)CNC(=O)[C@@H](CCSC)NC(=O)[C@@H](CCC(=O)O)NC(=O)[C@@H](CCC(=O)O)NC(=O)[C@@H](CCCCN)NC(=O)[C@@H](CO)NC(=O)[C@@H](CCSC)NC(=O)[C@@H](C)NC(=O)[C@@H](CC(C)C)NC(=O)[C@@H](C)NC(=O)[C@@H](CC(C)C)NC(=O)[C@@H](CCC(N)=O)NC(=O)[C@@H](CC(C)C)NC(=O)[C@@H](CCC(N)=O)NC(=O)[C@@H](CC(C)C)NC(=O)[C@@H](CCC(=O)O)NC(=O)[C@@H](CCC(=O)O)NC(=O)[C@@H](CCC(=O)O)NC(=O)CNC(=O)[C@H](N)CO)C(=O)N[C@H](CCCCN)C(=O)N[C@H](CO)C(=O)N[C@H](CCCCN)C(=O)N[C@H](CCCNC(=N)N)C(=O)N[C@H](CCCCN)C(=O)N[C@@H]1CSSC[C@H](C(=O)O)NC(=O)[C@@H](CC(=O)O)NC(=O)[C@H]2CCCN2C(=O)CNC(=O)[C@@H](CCCCN)NC(=O)[C@@H](CC(=O)O)NC(=O)CNC(=O)[C@@H](CCCNC(=N)N)NC1=O", "note": "[UPI peptide] (H-[dS]G[dE][dE][dE][dL][dQ][dL][dQ][dL][dA][dL][dA][dM][dS][dK][dE][dE][dM]G[dC][dI][dK][dS][dK][dR][dK][dC][dR]G[dD][dK]G[dP][dD][dC]-OH; disulfide 28-36; N-terminus and C-terminus assumed)", "values": [{"measurement": "tumor volumes in EC-iDKO or EC-iDKO-Flk mice", "setting": "LLC tumors; endothelial epsin knockout", "value": "did not alter tumor volumes compared to control peptide"}, {"measurement": "tumor growth in EC-iDKO versus EC-iDKO-Notch mice", "setting": "LLC tumors; mouse, in vivo", "value": "no difference in tumor growth between EC-iDKO mice and EC-iDKO-Notch mice"}, {"measurement": "tumor growth in WT-Flk mice", "setting": "LLC tumors; wild type mice heterozygous for VEGFR2", "value": "rescued the retarded tumor growth phenotype of WT-Flk mice"}, {"measurement": "Notch signaling", "setting": "Notch", "value": "did not alter"}, {"measurement": "retinal neoangiogenesis (isolectin B4)", "setting": "retinal neoangiogenesis", "value": "significant increase in retinal neoangiogenesis"}, {"measurement": "major angiogenic receptor signaling pathways other than VEGFR2", "setting": "[1]", "value": "not affected"}, {"measurement": "endogenous epsin protein levels", "setting": "epsin 1 and epsin 2", "value": "did not alter endogenous epsin protein levels"}, {"measurement": "VEGF-induced VEGFR2 phosphorylation", "setting": "VEGFR2 signaling; 10 μM peptide pretreatment, VEGF 50 ng/ml, 5 min", "value": "augmented VEGF-induced VEGFR2 phosphorylation"}, {"measurement": "phosphorylation of PLCγ and ERK", "setting": "VEGFR2 signaling; VEGF-stimulated HUVEC^αvβ3", "value": "increased phosphorylation of downstream effectors, PLCγ and ERK"}, {"measurement": "VEGF-induced migration (wound-healing assay)", "setting": "HUVEC^αvβ3 cells", "value": "greatly elevated"}, {"measurement": "VEGF-induced proliferation (BrdU labeling)", "setting": "HUVEC^αvβ3 cells", "value": "greatly elevated"}, {"measurement": "VEGF-induced tube formation (three-dimensional matrix gel assay)", "setting": "HUVEC^αvβ3 cells", "value": "greatly elevated"}, {"measurement": "tumor inhibition compared among AP-UIM, UI and UPI", "setting": "[2]; LLC tumor model", "value": "significantly greater tumor inhibition relative to AP-UIM or UIM peptide containing only iRGD (UI peptide)"}, {"measurement": "LLC tumor growth", "setting": "[2]; i.v. on alternating days for 14 days, 2.5, 5 and 10 mg/kg", "value": "significantly impeded by UPI peptide in a dose-dependent manner with 10 mg/kg yielding maximal inhibition"}, {"measurement": "VEGFR2 protein levels in tumors", "setting": "[2]; subcutaneous LLC tumors", "value": "dramatically increased"}, {"measurement": "tumor vessel density and diameter (CD31)", "setting": "[2]; subcutaneous LLC tumors", "value": "induced tumor vessel proliferation and promoted their dilation"}, {"measurement": "new blood vessel formation in matrigel plugs (CD31)", "setting": "in vivo neoangiogenesis", "value": "promoted VEGF-stimulated in vivo neoangiogenesis"}, {"measurement": "angiogenic receptor levels in tumors", "setting": "VEGFR2", "value": "VEGFR2, but not other angiogenic receptors, was increased"}, {"measurement": "metastasis to lymph node and lung", "setting": "B16 melanoma metastasis", "value": "significantly inhibited B16 melanoma metastasis to lymph node and lung"}, {"measurement": "orthotopic U87 glioblastoma tumor growth (MRI)", "setting": "human glioma U87 tumor; 10 mg/kg i.v. every two days", "value": "depressed U87 glioblastoma tumor growth"}, {"measurement": "VEGFR2 in tumor vasculature (in situ labelling, MRI probe)", "setting": "human glioma U87 tumor; mouse, in vivo", "value": "heightened VEGFR2 in the tumor vasculature"}, {"measurement": "life expectancy of U87 tumor-bearing SCID mice", "setting": "human glioma U87 tumor; mouse, in vivo", "value": "extended life expectancy"}, {"measurement": "time to achieve similar tumor mass as control peptide treated tumors", "setting": "human glioma U87 tumor; mouse, in vivo", "value": 35, "unit": "days"}, {"measurement": "tumor necrosis (MRI), tumors of equal size", "setting": "human glioma U87 tumor; mouse, in vivo", "value": "severe necrosis"}, {"measurement": "subcutaneous human U87 tumor growth", "setting": "human glioma U87 tumors; 10 mg/kg i.v., SCID mice, from 12 days post-implantation", "value": "significantly retarded subcutaneous human U87 tumor growth"}, {"measurement": "tumor hypoxia (pimonidazole)", "setting": "human glioma U87 tumors; mouse, in vivo", "value": "profound increases in hypoxia"}, {"measurement": "tumor vessel endothelium ultrastructure (TEM)", "setting": "human glioma U87 tumors; mouse, in vivo", "value": "increased fenestrations and open cell-cell junctions"}, {"measurement": "α-SMA coverage of tumor vessels", "setting": "human glioma U87 tumors; mouse, in vivo", "value": "decreased α-smooth muscle actin (α-SMA) coverage of tumor vessels"}, {"measurement": "VEGFR2 phosphorylation in tumor vasculature (immunofluorescence)", "setting": "human glioma U87 tumors; subcutaneous U87 tumors", "value": "significantly augmented"}, {"measurement": "VEGFR2 protein levels in tumors", "setting": "human glioma U87 tumors; subcutaneous U87 tumors", "value": "dramatically increased"}, {"measurement": "tumor vessel density and diameter (CD31)", "setting": "human glioma U87 tumors; subcutaneous U87 tumors", "value": "induced tumor vessel proliferation and promoted their dilation"}, {"measurement": "tumor vessel leakage of FITC-dextran", "setting": "human glioma U87 tumors; treated 3 weeks, 10 mg/kg i.v. alternating days", "value": "extensive leakage of fluorescent dextran into tumor tissues"}, {"measurement": "frequency of metastasis in lungs and liver", "setting": "TRAMP prostate tumors; 20 mg/kg i.p.", "value": "dramatic reductions in the frequency of metastasis in lungs and liver"}, {"measurement": "primary prostate tumors", "setting": "TRAMP prostate tumors; 20 mg/kg i.p. on alternating days from 20 weeks, sacrificed at 35 weeks", "value": "smaller and less frequent tumors"}, {"measurement": "average increased life expectancy", "setting": "TRAMP prostate tumors; 20 mg/kg, every-other-day i.p.", "value": "≥ 3", "unit": "months"}, {"measurement": "expression of vimentin and snail in lung and liver", "setting": "TRAMP prostate tumors; Western blot", "value": "significantly reduced"}, {"measurement": "orthotopic GL261 tumor growth (MRI)", "setting": "glioma GL261 tumor", "value": "hindered tumor growth; also recorded: equally as effective in inhibiting tumor growth as currently available anti-VEGF therapies"}, {"measurement": "VEGFR1 signaling", "setting": "VEGFR1", "value": "did not alter"}, {"measurement": "subcutaneous B16 melanoma tumor growth", "setting": "B16 melanoma tumors", "value": "effectively impaired subcutaneous B16 melanoma tumor growth"}]}
